# In the supplement of paper PMC10032668:
# The chains behind the UniProt entries cited, without tags or fusion partners.
# SRSF9, Q13242, UniProt Q13242, whole entry: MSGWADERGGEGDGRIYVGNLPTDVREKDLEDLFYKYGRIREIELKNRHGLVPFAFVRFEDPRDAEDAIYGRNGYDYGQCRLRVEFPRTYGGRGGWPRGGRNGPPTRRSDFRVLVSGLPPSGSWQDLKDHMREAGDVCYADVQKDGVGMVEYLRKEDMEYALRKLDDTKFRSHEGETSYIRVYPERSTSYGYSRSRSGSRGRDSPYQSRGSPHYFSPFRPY
# DLX6, P56179, UniProt P56179, whole entry: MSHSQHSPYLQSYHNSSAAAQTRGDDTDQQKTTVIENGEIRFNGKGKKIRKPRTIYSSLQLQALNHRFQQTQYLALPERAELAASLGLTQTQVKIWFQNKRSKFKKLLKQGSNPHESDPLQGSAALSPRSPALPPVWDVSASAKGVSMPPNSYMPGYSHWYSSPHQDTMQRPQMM
# KPNA4, O00629, UniProt O00629, whole entry: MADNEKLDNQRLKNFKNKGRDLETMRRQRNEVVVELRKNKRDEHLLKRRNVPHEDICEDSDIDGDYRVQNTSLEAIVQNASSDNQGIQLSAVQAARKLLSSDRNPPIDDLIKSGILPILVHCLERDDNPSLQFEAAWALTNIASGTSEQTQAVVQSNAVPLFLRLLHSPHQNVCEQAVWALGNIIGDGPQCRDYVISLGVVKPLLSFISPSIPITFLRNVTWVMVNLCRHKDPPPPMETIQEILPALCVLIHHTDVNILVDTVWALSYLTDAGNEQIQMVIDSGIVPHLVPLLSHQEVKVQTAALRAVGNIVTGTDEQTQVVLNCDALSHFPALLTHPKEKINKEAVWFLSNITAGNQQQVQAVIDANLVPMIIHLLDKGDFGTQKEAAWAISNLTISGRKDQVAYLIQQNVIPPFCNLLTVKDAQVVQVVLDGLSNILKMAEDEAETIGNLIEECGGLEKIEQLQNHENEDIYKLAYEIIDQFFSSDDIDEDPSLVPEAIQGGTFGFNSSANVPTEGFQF
# TUBB8, Q3ZCM7, UniProt Q3ZCM7, whole entry: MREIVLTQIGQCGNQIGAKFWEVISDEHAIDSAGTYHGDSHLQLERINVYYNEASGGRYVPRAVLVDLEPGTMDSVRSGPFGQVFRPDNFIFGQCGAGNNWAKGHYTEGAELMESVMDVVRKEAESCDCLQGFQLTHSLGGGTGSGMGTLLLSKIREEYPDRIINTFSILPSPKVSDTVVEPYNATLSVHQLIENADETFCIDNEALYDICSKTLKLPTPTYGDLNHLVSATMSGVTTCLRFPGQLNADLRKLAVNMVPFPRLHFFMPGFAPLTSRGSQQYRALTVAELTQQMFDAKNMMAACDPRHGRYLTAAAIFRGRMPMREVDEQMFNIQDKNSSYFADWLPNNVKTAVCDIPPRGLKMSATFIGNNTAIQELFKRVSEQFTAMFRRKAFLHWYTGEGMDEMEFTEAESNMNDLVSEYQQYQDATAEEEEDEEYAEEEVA
# ± gives the standard deviation of the averaged measurements. The list shows a part of the results. Only hits are listed; about a third recur on repeated control peptides.
# Tests used:
# Assay in all cases: PRISMA enrichment of interactor (LFQ) in peptide spot vs all other peptide spots (log2 fold change); higher = stronger / more specific binding of the interactor to the peptide
# ANP32B, Q92688 = target: ANP32B, Q92688
# Experimental: (§1)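 PRISMA: 221 full-length sORF-encoded peptides (3-15 aa), plus SOS1/GLUT1 control peptides, were spot-synthesized on cellulose membranes in triplicate. Membranes were incubated with HEK293T lysate, and bound proteins were identified by LC-MS/MS with LFQ. Enrichment is the log2 fold change versus all other peptide spots; only significant interactors are listed (cutoff c=6, x0=2.8).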
# ANP32E, Q9BTT0 = target: ANP32E, Q9BTT0
# Experimental: as §1
# DDX21, Q9NR30 = target: DDX21, Q9NR30
# Experimental: as §1
# FARP2, O94887 = target: FARP2, O94887
# Experimental: as §1
# PELP1, Q8IZL8 = target: PELP1, Q8IZL8
# Experimental: as §1
# RSL1D1, O76021 = target: RSL1D1, O76021
# Experimental: as §1
# UBTF, P17480 = target: UBTF, P17480
# Experimental: as §1
# TRA2A, Q13595 = target: TRA2A, Q13595
# Experimental: as §1
# ZRANB2, O95218 = target: ZRANB2, O95218
# Experimental: as §1
# ANP32A, P39687 = target: ANP32A, P39687
# Experimental: as §1
# CD2AP, Q9Y5K6 = target: CD2AP, Q9Y5K6
# Experimental: as §1
# CDK11B, P21127 = target: CDK11B, P21127
# Experimental: as §1
# CTTN, Q14247 = target: CTTN, Q14247
# Experimental: as §1
# HTATSF1, O43719 = target: HTATSF1, O43719
# Experimental: as §1
# LARP1, Q6PKG0 = target: LARP1, Q6PKG0
# Experimental: as §1
# MOV10, Q9HCE1 = target: MOV10, Q9HCE1
# Experimental: as §1
# MRPL10, Q7Z7H8 = target: MRPL10, Q7Z7H8
# Experimental: as §1
# MRPL40, Q9NQ50 = target: MRPL40, Q9NQ50
# Experimental: as §1
# MRPS18B, Q9Y676 = target: MRPS18B, Q9Y676
# Experimental: as §1
# MRPS31, Q92665 = target: MRPS31, Q92665
# Experimental: as §1
# MRPS34, P82930 = target: MRPS34, P82930
# Experimental: as §1
# MRPS35, P82673 = target: MRPS35, P82673
# Experimental: as §1
# MRPS5, P82675 = target: MRPS5, P82675
# Experimental: as §1
# NAP1L1, P55209 = target: NAP1L1, P55209
# Experimental: as §1
# NAP1L4, Q99733 = target: NAP1L4, Q99733
# Experimental: as §1
# NAT10, Q9H0A0 = target: NAT10, Q9H0A0
# Experimental: as §1
# NOB1, Q9ULX3 = target: NOB1, Q9ULX3
# Experimental: as §1
# NOC2L, Q9Y3T9 = target: NOC2L, Q9Y3T9
# Experimental: as §1
# NPM3, O75607 = target: NPM3, O75607
# Experimental: as §1
# PAF1, Q8N7H5 = target: PAF1, Q8N7H5
# Experimental: as §1
# [1] = substrate: PC, P11498
# Experimental: as §1
# PHAX, Q9H814 = target: PHAX, Q9H814
# Experimental: as §1
# PPM1G, O15355 = target: PPM1G, O15355
# Experimental: as §1
# PTCD3, Q96EY7 = target: PTCD3, Q96EY7
# Experimental: as §1
# RBM10 = target: RBM10
# Experimental: as §1
# RIOK1, Q9BRS2 = target: RIOK1, Q9BRS2
# Experimental: as §1
# RPLP1, P05386 = target: RPLP1, P05386
# Experimental: as §1
# SART3, Q15020 = target: SART3, Q15020
# Experimental: as §1
# SRSF1, Q07955 = target: SRSF1, Q07955
# Experimental: as §1
# SRSF10, O75494 = target: SRSF10, O75494
# Experimental: as §1
# SRSF4, Q08170 = target: SRSF4, Q08170
# Experimental: as §1
# SRSF5, Q13243 = target: SRSF5, Q13243
# Experimental: as §1
# SRSF6, Q13247 = target: SRSF6, Q13247
# Experimental: as §1
# SRSF7, Q16629 = target: SRSF7, Q16629
# Experimental: as §1
# SRSF9, Q13242 = target: SRSF9, Q13242
# Experimental: as §1
# SUPT4H1, P63272 = target: SUPT4H1, P63272
# Experimental: as §1
# SUPT5H, O00267 = target: SUPT5H, O00267
# Experimental: as §1
# ATP6AP1, Q15904 = target: ATP6AP1, Q15904
# Experimental: as §1
# DHTKD1, Q96HY7 = target: DHTKD1, Q96HY7
# Experimental: as §1
# DLX6, P56179 = target: DLX6, P56179
# Experimental: as §1
# HASPIN, Q8TF76 = target: HASPIN, Q8TF76
# Experimental: as §1
# IDH3B, O43837 = target: IDH3B, O43837
# Experimental: as §1
# KPNA4, O00629 = target: KPNA4, O00629
# Experimental: as §1
# LTF, P02788 = target: LTF, P02788
# Experimental: as §1
# MRPL39, Q9NYK5 = target: MRPL39, Q9NYK5
# Experimental: as §1
# MRPL9, Q9BYD2 = target: MRPL9, Q9BYD2
# Experimental: as §1
# TUBB8, Q3ZCM7 = target: TUBB8, Q3ZCM7
# Experimental: as §1
# UQCRC1, P31930 = target: UQCRC1, P31930
# Experimental: as §1
# CTR9, Q6PD62 = target: CTR9, Q6PD62
# Experimental: as §1
# LARP7, Q4G0J3 = target: LARP7, Q4G0J3
# Experimental: as §1
# NOLC1, Q14978 = target: NOLC1, Q14978
# Experimental: as §1
# RO60, P10155 = target: RO60, P10155
# Experimental: as §1
# SUPT16H, Q9Y5B9 = target: SUPT16H, Q9Y5B9
# Experimental: as §1
# WBP11, Q9Y2W2 = target: WBP11, Q9Y2W2
# Experimental: as §1
binder,measurement,setting,value
MKKLRLKAAE [KIAA0040],PRISMA enrichment of interactor (log2),"ANP32B, Q92688",6.63
same,PRISMA enrichment of interactor (log2),"ANP32E, Q9BTT0",5.69
same,PRISMA enrichment of interactor (log2),"DDX21, Q9NR30",6.35
same,PRISMA enrichment of interactor (log2),"FARP2, O94887",4.2
same,PRISMA enrichment of interactor (log2),"PELP1, Q8IZL8",5.64
same,PRISMA enrichment of interactor (log2),"RSL1D1, O76021",5.24
same,PRISMA enrichment of interactor (log2),"UBTF, P17480",6.28
MCEGRERERRAPQR [UGP2],PRISMA enrichment of interactor (log2),"TRA2A, Q13595",4.06
same,PRISMA enrichment of interactor (log2),"ZRANB2, O95218",5.15
MRSARPRS [GATA6],PRISMA enrichment of interactor (log2),"ANP32A, P39687",6.46
same,PRISMA enrichment of interactor (log2),"ANP32B, Q92688",7.39
same,PRISMA enrichment of interactor (log2),"ANP32E, Q9BTT0",7.14
same,PRISMA enrichment of interactor (log2),"CD2AP, Q9Y5K6",6.24
same,PRISMA enrichment of interactor (log2),"CDK11B, P21127",5.26
same,PRISMA enrichment of interactor (log2),"CTTN, Q14247",5.01
same,PRISMA enrichment of interactor (log2),"DDX21, Q9NR30",5.71
same,PRISMA enrichment of interactor (log2),"HTATSF1, O43719",7.14
same,PRISMA enrichment of interactor (log2),"LARP1, Q6PKG0",5.79
same,PRISMA enrichment of interactor (log2),"MOV10, Q9HCE1",5.39
same,PRISMA enrichment of interactor (log2),"MRPL10, Q7Z7H8",5.9
same,PRISMA enrichment of interactor (log2),"MRPL40, Q9NQ50",5.13
same,PRISMA enrichment of interactor (log2),"MRPS18B, Q9Y676",4.54
same,PRISMA enrichment of interactor (log2),"MRPS31, Q92665",6.23
same,PRISMA enrichment of interactor (log2),"MRPS34, P82930",5.47
same,PRISMA enrichment of interactor (log2),"MRPS35, P82673",6.13
same,PRISMA enrichment of interactor (log2),"MRPS5, P82675",5.56
same,PRISMA enrichment of interactor (log2),"NAP1L1, P55209",6.059 ± 0.056
same,PRISMA enrichment of interactor (log2),"NAP1L4, Q99733",5.71
same,PRISMA enrichment of interactor (log2),"NAT10, Q9H0A0",5.21
same,PRISMA enrichment of interactor (log2),"NOB1, Q9ULX3",5.28
same,PRISMA enrichment of interactor (log2),"NOC2L, Q9Y3T9",5.33
same,PRISMA enrichment of interactor (log2),"NPM3, O75607",5.47
same,PRISMA enrichment of interactor (log2),"PAF1, Q8N7H5",5.21
same,PRISMA enrichment of interactor (log2),[1],4.3
same,PRISMA enrichment of interactor (log2),"PELP1, Q8IZL8",5.15
same,PRISMA enrichment of interactor (log2),"PHAX, Q9H814",4.68
same,PRISMA enrichment of interactor (log2),"PPM1G, O15355",6.16
same,PRISMA enrichment of interactor (log2),"PTCD3, Q96EY7",5.87
same,PRISMA enrichment of interactor (log2),RBM10,5.89
same,PRISMA enrichment of interactor (log2),"RIOK1, Q9BRS2",4.98
same,PRISMA enrichment of interactor (log2),"RPLP1, P05386",7.13
same,PRISMA enrichment of interactor (log2),"SART3, Q15020",5.8
same,PRISMA enrichment of interactor (log2),"SRSF1, Q07955",5.72
same,PRISMA enrichment of interactor (log2),"SRSF10, O75494",4.78
same,PRISMA enrichment of interactor (log2),"SRSF4, Q08170",5.02
same,PRISMA enrichment of interactor (log2),"SRSF5, Q13243",6.12
same,PRISMA enrichment of interactor (log2),"SRSF6, Q13247",5.27
same,PRISMA enrichment of interactor (log2),"SRSF7, Q16629",5.17
same,PRISMA enrichment of interactor (log2),"SRSF9, Q13242",6
same,PRISMA enrichment of interactor (log2),"SUPT4H1, P63272",4.11
same,PRISMA enrichment of interactor (log2),"SUPT5H, O00267",6.85
same,PRISMA enrichment of interactor (log2),"ZRANB2, O95218",5.73
MAASRTVMAVGRRR [NF1],PRISMA enrichment of interactor (log2),"ANP32A, P39687",5.7
same,PRISMA enrichment of interactor (log2),"ANP32B, Q92688",7.06
same,PRISMA enrichment of interactor (log2),"ANP32E, Q9BTT0",6.45
same,PRISMA enrichment of interactor (log2),"ATP6AP1, Q15904",9.25
same,PRISMA enrichment of interactor (log2),"DHTKD1, Q96HY7",5.03
same,PRISMA enrichment of interactor (log2),"DLX6, P56179",5.99
same,PRISMA enrichment of interactor (log2),"HASPIN, Q8TF76",6.47
same,PRISMA enrichment of interactor (log2),"IDH3B, O43837",6.84
same,PRISMA enrichment of interactor (log2),"KPNA4, O00629",5.15
same,PRISMA enrichment of interactor (log2),"LTF, P02788",4.35
same,PRISMA enrichment of interactor (log2),"MRPL10, Q7Z7H8",5.9
same,PRISMA enrichment of interactor (log2),"MRPL39, Q9NYK5",6.31
same,PRISMA enrichment of interactor (log2),"MRPL9, Q9BYD2",5.26
same,PRISMA enrichment of interactor (log2),"MRPS35, P82673",5.57
same,PRISMA enrichment of interactor (log2),"NAP1L1, P55209",6.44 ± 0.86
same,PRISMA enrichment of interactor (log2),"NAP1L4, Q99733",6.35
same,PRISMA enrichment of interactor (log2),"PTCD3, Q96EY7",5.5
same,PRISMA enrichment of interactor (log2),"TUBB8, Q3ZCM7",5.84
same,PRISMA enrichment of interactor (log2),"UQCRC1, P31930",6.79
MRRRRRRM [ABI2],PRISMA enrichment of interactor (log2),"ANP32A, P39687",6.25
same,PRISMA enrichment of interactor (log2),"ANP32B, Q92688",7.48
same,PRISMA enrichment of interactor (log2),"ANP32E, Q9BTT0",8.16
same,PRISMA enrichment of interactor (log2),"CTR9, Q6PD62",6
same,PRISMA enrichment of interactor (log2),"HTATSF1, O43719",6
same,PRISMA enrichment of interactor (log2),"LARP7, Q4G0J3",5.95
same,PRISMA enrichment of interactor (log2),"NAP1L1, P55209",7.01 ± 0.68
same,PRISMA enrichment of interactor (log2),"NAP1L4, Q99733",6.65
same,PRISMA enrichment of interactor (log2),"NOLC1, Q14978",5.15
same,PRISMA enrichment of interactor (log2),"NPM3, O75607",6.8
same,PRISMA enrichment of interactor (log2),"PAF1, Q8N7H5",5.98
same,PRISMA enrichment of interactor (log2),"PTCD3, Q96EY7",5.79
same,PRISMA enrichment of interactor (log2),"RO60, P10155",5.69
same,PRISMA enrichment of interactor (log2),"SART3, Q15020",5.23
same,PRISMA enrichment of interactor (log2),"SUPT16H, Q9Y5B9",7.11
same,PRISMA enrichment of interactor (log2),"SUPT5H, O00267",5.88
same,PRISMA enrichment of interactor (log2),"WBP11, Q9Y2W2",5.69
same,PRISMA enrichment of interactor (log2),"ZRANB2, O95218",5.26

# Reprinted at random: two records from the list
binder,measurement,setting,value
MAASRTVMAVGRRR [NF1],PRISMA enrichment of interactor (log2),"MRPL9, Q9BYD2",5.26
MRSARPRS [GATA6],PRISMA enrichment of interactor (log2),"CD2AP, Q9Y5K6",6.24

# 4 entries from above in a different format:
binder	measurement	setting	value
MRSARPRS [GATA6]	PRISMA enrichment of interactor (log2)	RIOK1, Q9BRS2	4.98
same	PRISMA enrichment of interactor (log2)	RPLP1, P05386	7.13
same	PRISMA enrichment of interactor (log2)	SART3, Q15020	5.8
same	PRISMA enrichment of interactor (log2)	SRSF1, Q07955	5.72
